Laboratory results taken from paper PMC9858354.
No constants are given. Whether binding was seen depends on the method and setting.

By UniProt entry, the sequences of proteins in these tests, tags left out. Residues count along the entry.
UniProt P13500, residues 24-99: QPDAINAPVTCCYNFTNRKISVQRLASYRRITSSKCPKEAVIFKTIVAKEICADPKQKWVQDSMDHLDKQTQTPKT
UniProt P13501, residues 24-91: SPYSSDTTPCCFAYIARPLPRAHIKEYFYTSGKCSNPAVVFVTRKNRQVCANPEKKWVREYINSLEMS
UniProt P80075, residues 24-99: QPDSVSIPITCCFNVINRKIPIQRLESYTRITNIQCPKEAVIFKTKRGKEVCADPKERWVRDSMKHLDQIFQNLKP
UniProt O00585, residues 24-134: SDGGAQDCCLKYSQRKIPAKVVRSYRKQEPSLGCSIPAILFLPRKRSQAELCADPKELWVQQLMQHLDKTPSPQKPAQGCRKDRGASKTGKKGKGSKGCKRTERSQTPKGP
UniProt P80098, residues 24-99: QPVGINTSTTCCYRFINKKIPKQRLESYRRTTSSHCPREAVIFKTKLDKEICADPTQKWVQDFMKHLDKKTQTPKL
UniProt Q99731, residues 22-98: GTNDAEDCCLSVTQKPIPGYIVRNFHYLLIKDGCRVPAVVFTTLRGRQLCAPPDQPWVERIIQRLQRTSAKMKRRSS
UniProt P10148, residues 24-148: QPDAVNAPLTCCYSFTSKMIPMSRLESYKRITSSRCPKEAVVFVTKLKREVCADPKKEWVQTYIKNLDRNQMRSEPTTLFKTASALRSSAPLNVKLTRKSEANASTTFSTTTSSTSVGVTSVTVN

The substances below were run against T1, human C-C motif chemokine receptor-like 2 (CCRL2) isoform b, on HEK-huCCRL2 cells (human) (UniProt O00421) (assay: flow cytometry on cells; serially diluted biotin-labeled ligand on HEK-huCCRL2, HEK-muCCRL2 or parental HEK cells (2x10^4 cells/well, 384-well), PBS + 0.1% BSA, 4°C 45 min, detected with RRX-streptavidin; MFI normalized to parental HEK cell binding; EC50 from four-parameter fit; only the binder purified).
T1 sequence: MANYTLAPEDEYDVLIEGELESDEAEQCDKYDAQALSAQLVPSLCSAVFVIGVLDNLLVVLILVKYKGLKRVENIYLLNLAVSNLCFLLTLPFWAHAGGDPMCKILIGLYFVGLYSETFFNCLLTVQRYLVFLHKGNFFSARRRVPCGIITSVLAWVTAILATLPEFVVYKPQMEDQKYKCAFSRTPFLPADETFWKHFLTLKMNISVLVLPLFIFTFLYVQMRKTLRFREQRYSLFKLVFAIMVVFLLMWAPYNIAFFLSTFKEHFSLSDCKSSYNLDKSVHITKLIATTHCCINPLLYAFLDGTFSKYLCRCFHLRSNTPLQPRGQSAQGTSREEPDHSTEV

Row | Substance | binding
1 | biotin-labeled human CCL2 (from UniProt P13500 24-99) (ligand) | no binding
2 | biotin-labeled human CCL5 (from UniProt P13501 24-91) (ligand) | no binding
3 | biotin-labeled human CCL8 (from UniProt P80075 24-99) (ligand) | no binding
4 | biotin-labeled human CCL21 (from UniProt O00585 24-134) (ligand) | no binding

Next, values leading:

Row | binding | Substance
5 | no binding | biotin-labeled human CCL7 (from UniProt P80098 24-99) (ligand)
6 | no binding | biotin-labeled human CCL19 (from UniProt Q99731 22-98) (ligand)

These substances were tested against T2, mouse C-C motif chemokine receptor-like 2 (CCRL2) isoform b, on HEK-muCCRL2 cells (mouse) (UniProt O35457) in the same assay as above.
T2 sequence: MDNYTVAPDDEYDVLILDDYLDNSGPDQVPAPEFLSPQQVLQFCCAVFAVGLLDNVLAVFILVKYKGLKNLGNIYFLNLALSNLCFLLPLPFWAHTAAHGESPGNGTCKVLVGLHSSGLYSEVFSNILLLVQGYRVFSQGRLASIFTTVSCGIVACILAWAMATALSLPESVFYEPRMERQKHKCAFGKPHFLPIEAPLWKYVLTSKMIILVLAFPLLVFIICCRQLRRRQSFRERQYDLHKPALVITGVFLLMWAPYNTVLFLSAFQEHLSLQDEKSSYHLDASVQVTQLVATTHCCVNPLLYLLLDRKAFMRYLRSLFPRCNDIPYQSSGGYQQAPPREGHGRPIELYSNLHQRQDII

Row | binding | Substance
7 | no binding | biotin-labeled murine CCL2 (from UniProt P10148 24-148) (ligand)
8 | no binding | biotin-labeled murine CCL7 (from UniProt Q03366 24-97) (ligand)

These substances were tested against T1, human C-C motif chemokine receptor-like 2 (CCRL2) isoform b, on HEK-huCCRL2 cells (human) (assay: SPR; live-cell SPR microscopy (SPRm 200); HEK-huCCRL2 cells seeded on collagen-coated gold slides; analyte injected at 150 ul/min, contact 3 min, dissociation 5 min; running buffer PBS + 0.1% BSA; chemerin 10-400 nM; 1:1 binding model; n = 3; only the binder purified).

Row | binding | Substance
9 | no binding | label-free human CCL2 (from UniProt P13500 24-99) (ligand)
10 | no binding | label-free human CCL5 (from UniProt P13501 24-91) (ligand)
